This is one part of the list.
Experiments:
Test in all cases: log2 fold change, soluble protein after heating vs DMSO (PISA); higher = thermal stabilisation; K562 lysate, 10 uM; active = over 0.2 and 3.5 SD of the protein, either way, in both replicates (recomputed)
vemurafenib = compound: CCCS(=O)(=O)Nc1ccc(F)c(C(=O)c2c[nH]c3ncc(-c4ccc(Cl)cc4)cc23)c1F [vemurafenib]
Outline: (§1)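 The values are log-two fold changes in thermal stability compared with solvent controls and come from duplicates. They were obtained by TMTpro 16plex LC-MS/MS, with channel sums equalised, on the supernatant after 21,000xg for 90 min. That supernatant came from crude K562 extract at 1 mg/mL protein treated with 10 μM compound for 30 min, heated for 3 min across 48°C-58°C, pooled and brought to 0.5% NP-40 at 4°C.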

Sequences of proteins named here, by UniProt entry; tags and fusion partners are left off. A change or cut given only in a name is not applied to a line headed by its entry.
UniProt Q9Y5B9, whole entry, looked up: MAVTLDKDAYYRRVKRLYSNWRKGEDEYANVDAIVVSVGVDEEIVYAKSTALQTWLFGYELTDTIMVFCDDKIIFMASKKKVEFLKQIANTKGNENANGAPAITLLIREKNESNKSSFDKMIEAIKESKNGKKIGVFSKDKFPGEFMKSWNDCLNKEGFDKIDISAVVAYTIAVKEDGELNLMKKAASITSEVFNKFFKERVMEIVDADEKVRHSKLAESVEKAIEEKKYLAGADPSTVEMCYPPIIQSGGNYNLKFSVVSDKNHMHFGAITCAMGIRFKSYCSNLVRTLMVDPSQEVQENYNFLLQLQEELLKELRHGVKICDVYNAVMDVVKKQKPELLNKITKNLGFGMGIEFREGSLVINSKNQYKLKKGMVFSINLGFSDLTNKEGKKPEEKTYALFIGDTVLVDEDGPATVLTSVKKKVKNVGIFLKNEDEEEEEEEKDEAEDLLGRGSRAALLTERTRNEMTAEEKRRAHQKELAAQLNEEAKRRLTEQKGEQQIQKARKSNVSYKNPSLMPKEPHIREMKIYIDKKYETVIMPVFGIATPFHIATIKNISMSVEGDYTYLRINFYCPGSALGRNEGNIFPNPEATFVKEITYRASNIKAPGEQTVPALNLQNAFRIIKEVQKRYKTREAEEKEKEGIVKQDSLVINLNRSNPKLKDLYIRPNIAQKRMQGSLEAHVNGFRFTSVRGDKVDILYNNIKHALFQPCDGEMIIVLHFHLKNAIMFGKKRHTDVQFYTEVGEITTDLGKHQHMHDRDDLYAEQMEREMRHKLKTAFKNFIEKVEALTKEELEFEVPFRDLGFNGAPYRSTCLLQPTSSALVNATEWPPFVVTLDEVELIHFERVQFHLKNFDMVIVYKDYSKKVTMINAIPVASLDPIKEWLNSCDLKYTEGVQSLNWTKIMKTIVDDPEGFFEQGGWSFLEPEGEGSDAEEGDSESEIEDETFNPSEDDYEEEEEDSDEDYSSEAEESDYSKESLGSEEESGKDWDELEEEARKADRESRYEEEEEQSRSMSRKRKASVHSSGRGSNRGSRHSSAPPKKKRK
UniProt Q6P1X5, whole entry, looked up: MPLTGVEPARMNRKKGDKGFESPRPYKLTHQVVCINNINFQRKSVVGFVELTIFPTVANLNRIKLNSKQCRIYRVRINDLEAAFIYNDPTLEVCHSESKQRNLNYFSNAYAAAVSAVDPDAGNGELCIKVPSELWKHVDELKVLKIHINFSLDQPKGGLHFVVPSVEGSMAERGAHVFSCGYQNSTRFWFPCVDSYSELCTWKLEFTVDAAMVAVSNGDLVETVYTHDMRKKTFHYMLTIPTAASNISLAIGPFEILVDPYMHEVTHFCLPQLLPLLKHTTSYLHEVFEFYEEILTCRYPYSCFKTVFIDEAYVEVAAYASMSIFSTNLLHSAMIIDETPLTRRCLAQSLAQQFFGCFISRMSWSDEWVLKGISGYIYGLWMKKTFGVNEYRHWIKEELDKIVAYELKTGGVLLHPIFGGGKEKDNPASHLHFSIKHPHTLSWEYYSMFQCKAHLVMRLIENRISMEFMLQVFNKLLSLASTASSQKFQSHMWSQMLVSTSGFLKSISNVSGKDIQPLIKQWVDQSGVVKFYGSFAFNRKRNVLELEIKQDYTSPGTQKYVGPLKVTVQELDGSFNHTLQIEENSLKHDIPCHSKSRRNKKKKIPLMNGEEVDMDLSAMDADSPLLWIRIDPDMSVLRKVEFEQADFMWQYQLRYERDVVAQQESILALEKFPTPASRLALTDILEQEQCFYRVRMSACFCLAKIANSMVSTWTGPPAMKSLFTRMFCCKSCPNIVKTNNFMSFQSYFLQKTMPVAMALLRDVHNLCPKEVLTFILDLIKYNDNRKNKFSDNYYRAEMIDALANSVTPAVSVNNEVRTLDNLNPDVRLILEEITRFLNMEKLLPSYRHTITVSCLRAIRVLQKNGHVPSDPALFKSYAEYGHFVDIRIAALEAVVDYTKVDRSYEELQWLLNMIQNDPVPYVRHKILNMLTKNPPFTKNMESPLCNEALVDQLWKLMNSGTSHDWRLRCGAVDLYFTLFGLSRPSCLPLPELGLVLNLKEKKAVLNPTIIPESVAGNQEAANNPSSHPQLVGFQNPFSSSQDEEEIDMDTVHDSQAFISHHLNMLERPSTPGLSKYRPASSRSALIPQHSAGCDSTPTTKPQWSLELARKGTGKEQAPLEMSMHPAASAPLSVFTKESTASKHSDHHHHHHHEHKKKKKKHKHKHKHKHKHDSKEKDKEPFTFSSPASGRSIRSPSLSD
UniProt Q96I99: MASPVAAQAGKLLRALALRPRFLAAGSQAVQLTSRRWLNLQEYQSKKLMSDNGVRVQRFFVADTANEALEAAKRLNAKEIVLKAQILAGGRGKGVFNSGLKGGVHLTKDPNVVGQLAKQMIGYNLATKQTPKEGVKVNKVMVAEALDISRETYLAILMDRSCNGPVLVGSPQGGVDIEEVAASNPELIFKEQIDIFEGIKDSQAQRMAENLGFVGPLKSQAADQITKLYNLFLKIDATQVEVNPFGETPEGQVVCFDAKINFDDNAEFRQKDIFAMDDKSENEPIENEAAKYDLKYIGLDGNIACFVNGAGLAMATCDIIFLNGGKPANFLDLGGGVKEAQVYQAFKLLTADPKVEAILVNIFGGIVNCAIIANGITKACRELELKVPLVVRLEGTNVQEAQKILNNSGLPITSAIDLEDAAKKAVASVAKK
UniProt Q15750: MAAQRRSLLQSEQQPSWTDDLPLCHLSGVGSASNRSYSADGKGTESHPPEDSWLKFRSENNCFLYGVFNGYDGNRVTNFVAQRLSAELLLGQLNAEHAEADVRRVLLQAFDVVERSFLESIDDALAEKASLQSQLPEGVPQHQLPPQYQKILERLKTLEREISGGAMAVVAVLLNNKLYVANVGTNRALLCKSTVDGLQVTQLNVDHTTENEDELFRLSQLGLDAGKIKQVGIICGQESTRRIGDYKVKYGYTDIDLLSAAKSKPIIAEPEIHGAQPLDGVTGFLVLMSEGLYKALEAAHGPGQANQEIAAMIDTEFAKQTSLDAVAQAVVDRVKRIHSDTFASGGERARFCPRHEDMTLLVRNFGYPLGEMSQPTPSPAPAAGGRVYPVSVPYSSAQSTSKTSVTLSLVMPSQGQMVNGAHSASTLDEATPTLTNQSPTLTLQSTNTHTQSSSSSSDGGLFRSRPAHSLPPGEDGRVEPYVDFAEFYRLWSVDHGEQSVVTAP
UniProt Q9P2R7: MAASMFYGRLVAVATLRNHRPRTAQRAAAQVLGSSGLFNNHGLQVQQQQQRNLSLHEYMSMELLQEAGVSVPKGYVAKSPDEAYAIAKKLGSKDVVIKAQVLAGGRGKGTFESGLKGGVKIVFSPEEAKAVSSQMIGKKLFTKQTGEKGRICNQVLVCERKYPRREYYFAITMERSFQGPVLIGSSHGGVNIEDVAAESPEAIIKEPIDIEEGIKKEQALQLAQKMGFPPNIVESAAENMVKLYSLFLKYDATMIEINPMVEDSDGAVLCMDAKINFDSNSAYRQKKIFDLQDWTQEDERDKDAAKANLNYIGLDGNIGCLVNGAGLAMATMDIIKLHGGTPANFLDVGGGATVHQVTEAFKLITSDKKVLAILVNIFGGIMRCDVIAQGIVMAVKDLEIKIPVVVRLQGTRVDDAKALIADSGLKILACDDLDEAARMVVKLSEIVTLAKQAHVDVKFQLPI
UniProt Q92797: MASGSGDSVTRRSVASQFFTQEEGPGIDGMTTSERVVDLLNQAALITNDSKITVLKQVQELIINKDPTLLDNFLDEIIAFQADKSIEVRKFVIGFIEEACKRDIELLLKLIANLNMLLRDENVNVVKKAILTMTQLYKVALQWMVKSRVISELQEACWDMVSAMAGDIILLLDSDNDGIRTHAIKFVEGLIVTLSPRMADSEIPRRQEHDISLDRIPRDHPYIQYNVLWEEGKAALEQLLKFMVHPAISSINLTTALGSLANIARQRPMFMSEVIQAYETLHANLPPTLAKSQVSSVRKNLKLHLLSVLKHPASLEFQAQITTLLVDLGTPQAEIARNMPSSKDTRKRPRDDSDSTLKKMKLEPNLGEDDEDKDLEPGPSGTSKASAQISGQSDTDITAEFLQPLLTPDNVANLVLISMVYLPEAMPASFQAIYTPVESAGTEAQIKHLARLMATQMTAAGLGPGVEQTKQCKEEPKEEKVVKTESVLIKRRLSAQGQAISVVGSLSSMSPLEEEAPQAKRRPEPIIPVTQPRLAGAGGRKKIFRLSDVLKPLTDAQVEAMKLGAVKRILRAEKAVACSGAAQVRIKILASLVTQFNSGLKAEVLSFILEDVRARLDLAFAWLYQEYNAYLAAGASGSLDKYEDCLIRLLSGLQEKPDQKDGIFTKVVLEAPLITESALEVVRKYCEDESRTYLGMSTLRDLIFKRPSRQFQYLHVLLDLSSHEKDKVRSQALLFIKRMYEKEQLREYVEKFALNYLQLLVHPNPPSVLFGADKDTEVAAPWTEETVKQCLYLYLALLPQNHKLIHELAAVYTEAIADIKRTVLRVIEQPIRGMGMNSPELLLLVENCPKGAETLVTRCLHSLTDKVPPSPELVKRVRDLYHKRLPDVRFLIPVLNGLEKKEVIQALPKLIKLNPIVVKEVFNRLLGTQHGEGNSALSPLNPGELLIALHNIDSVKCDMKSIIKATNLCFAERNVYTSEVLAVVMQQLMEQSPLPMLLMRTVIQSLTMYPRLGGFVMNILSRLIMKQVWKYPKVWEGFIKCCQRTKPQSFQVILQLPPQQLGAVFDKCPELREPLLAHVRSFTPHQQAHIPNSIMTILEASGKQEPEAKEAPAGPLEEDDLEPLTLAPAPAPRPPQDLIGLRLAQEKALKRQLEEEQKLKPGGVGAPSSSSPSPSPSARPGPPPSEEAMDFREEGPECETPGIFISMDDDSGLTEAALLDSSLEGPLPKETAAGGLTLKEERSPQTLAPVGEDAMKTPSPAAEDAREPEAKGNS
UniProt P16949: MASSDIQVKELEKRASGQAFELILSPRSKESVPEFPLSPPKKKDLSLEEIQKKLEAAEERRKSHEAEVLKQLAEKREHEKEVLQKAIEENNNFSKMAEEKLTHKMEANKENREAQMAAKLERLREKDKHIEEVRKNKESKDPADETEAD
UniProt P51687: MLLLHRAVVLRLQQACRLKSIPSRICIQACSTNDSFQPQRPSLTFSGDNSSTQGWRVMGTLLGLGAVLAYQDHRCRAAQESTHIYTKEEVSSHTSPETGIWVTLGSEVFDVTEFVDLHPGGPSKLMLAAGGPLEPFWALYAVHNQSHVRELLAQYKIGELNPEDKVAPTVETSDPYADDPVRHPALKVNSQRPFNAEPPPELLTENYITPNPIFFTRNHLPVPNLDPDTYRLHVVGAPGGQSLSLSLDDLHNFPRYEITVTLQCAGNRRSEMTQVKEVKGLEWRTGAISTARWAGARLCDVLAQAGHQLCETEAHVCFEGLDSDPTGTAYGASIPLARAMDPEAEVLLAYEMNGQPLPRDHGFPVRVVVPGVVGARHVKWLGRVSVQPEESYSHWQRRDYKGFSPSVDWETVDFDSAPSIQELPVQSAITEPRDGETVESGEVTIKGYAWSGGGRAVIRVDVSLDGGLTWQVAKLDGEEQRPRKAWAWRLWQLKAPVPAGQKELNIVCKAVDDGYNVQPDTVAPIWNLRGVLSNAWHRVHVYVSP
UniProt O75410: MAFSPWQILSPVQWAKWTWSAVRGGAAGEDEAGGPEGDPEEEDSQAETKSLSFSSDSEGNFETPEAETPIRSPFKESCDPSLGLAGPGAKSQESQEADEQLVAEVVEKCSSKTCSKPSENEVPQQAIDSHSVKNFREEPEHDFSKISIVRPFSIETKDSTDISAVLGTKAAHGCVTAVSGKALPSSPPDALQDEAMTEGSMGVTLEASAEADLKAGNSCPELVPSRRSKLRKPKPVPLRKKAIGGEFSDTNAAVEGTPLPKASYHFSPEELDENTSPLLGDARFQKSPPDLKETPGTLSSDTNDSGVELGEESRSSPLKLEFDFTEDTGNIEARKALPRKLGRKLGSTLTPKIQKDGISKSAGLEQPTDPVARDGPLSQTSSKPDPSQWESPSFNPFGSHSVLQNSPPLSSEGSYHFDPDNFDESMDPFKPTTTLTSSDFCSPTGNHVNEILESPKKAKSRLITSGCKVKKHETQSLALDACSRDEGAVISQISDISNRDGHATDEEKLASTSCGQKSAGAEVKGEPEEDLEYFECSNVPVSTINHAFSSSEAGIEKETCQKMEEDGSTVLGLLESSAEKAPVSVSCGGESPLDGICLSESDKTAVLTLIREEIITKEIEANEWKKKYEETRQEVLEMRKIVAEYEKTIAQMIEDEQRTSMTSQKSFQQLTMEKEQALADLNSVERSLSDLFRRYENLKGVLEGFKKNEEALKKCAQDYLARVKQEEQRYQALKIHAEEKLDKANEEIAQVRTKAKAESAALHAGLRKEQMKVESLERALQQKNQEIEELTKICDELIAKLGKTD

[1] = compound: CCCS(=O)(=O)Nc1ccc(F)c(C(=O)c2c[nH]c3ncc(Cl)cc23)c1F
Outline: as §1

barasertib = compound: CCN(CCCOc1ccc2c(Nc3cc(CC(=O)Nc4cccc(F)c4)[nH]n3)ncnc2c1)CCOP(=O)(O)O [barasertib]
Outline: as §1

[2] = compound: CC[C@@H]1C(=O)N(C)c2cnc(Nc3ccc(C(=O)NC4CCN(C)CC4)cc3OC)nc2N1C1CCCC1
Outline: as §1

volasertib = compound: CC[C@@H]1C(=O)N(C)c2cnc(Nc3ccc(C(=O)N[C@H]4CC[C@H](N5CCN(CC6CC6)CC5)CC4)cc3OC)nc2N1C(C)C [volasertib]
Outline: as §1

[3] = compound: CCn1c(C(=O)N(C2CC2)C2CC2)cc2c3c(ncn3C)c(Nc3cc(C)n(C)n3)nc21
Outline: as §1

[4] = compound: CCn1cc(-c2ccnc3[nH]c(-c4cccc(CN(C)C)c4)cc23)c(-c2ccc(NC(=O)N(C)C)cc2)n1
Outline: as §1

[5] = compound: CN1CCC(CNc2ccc3ncc(-c4cccc(OC(F)(F)F)c4)n3n2)CC1
Outline: as §1

saracatinib = compound: CN1CCN(CCOc2cc(OC3CCOCC3)c3c(Nc4c(Cl)ccc5c4OCO5)ncnc3c2)CC1 [saracatinib]
Outline: as §1

sotrastaurin = compound: CN1CCN(c2nc(C3=C(c4c[nH]c5ccccc45)C(=O)NC3=O)c3ccccc3n2)CC1 [sotrastaurin]
Outline: as §1

alvocidib = compound: CN1CC[C@H](c2c(O)cc(O)c3c(=O)cc(-c4ccccc4Cl)oc23)[C@H](O)C1 [alvocidib]
Outline: as §1

Tubastatin A = compound: CN1CCc2c(c3ccccc3n2Cc2ccc(C(=O)NO)cc2)C1 [Tubastatin A]
Outline: as §1

[6] = compound: CNC(=O)C1=CC=CC=C1NC2=NC(=NC=C2Cl)NC3=C(C=C(C=C3)N4CCOCC4)OC
Outline: as §1

defactinib = compound: CNC(=O)c1ccc(Nc2ncc(C(F)(F)F)c(NCc3nccnc3N(C)S(C)(=O)=O)n2)cc1 [defactinib]
Outline: as §1

[7] = compound: CNc1nc(-c2ccc3c(N)n[nH]c3c2)cc(N2C[C@@H](C(=O)NC3CCCCC3)CC[C@H]2C)n1
Outline: as §1

encorafenib = compound: COC(=O)N[C@@H](C)CNc1nccc(-c2cn(C(C)C)nc2-c2cc(Cl)cc(NS(C)(=O)=O)c2F)n1 [encorafenib]
Outline: as §1

[8] = compound: COC(=O)[C@H](CCSC)NC(=O)C1=C(C=C(C=C1)NC[C@H](CS)N)C2=CC=CC=C2
Outline: as §1

alisertib = compound: COc1cc(Nc2ncc3c(n2)-c2ccc(Cl)cc2C(c2c(F)cccc2OC)=NC3)ccc1C(=O)O [alisertib]
Outline: as §1

[9] = compound: COc1cc2nc(-c3cc(F)ccc3O)nc(N[C@@H]3CNC[C@H]3C(C)(C)O)c2cc1OC
Outline: as §1

gefitinib = compound: COc1cc2ncnc(Nc3ccc(F)c(Cl)c3)c2cc1OCCCN1CCOCC1 [gefitinib]
Outline: as §1

Measured: log2 fold change

STXBP4 (UniProt Q6ZWJ1)
inactive: vemurafenib 0.035 | [1] 0.027 | barasertib 0.023 | [2] 0.032 | volasertib -0.045 | [3] 0.047 | [4] 0.008 | [5] -0.057 | saracatinib -0.044 | sotrastaurin 0.002 | alvocidib 0.05 | Tubastatin A -0.079 | [6] 0.044 | defactinib 0.086 | [7] 0.021 | encorafenib 0.067 | [8] -0.019 | alisertib -0.011 | [9] 0.019 | gefitinib 0.013

SUPT16H (UniProt Q9Y5B9)
inactive: vemurafenib 0.001 | [1] 0.02 | barasertib -0.02 | [2] -0.031 | volasertib -0.032 | [3] -0.008 | [4] 0.005 | [5] -0.046 | saracatinib 0.02 | sotrastaurin 0.017 | alvocidib 0.006 | Tubastatin A -0.034 | [6] 0.011 | defactinib 0.022 | [7] -0.041 | encorafenib 0.008 | [8] 0.035 | alisertib -0.024 | [9] 0 | gefitinib -0.021

TAF2 (UniProt Q6P1X5)
inactive: vemurafenib 0.092 | [1] 0.015 | barasertib 0.057 | [2] 0.04 | volasertib -0.031 | [3] 0.021 | [4] 0.053 | [5] -0.053 | saracatinib 0.054 | sotrastaurin -0.001 | alvocidib 0.032 | Tubastatin A -0.085 | [6] 0.03 | defactinib 0.006 | [7] -0.098 | encorafenib -0.002 | [8] -0.011 | alisertib 0.041 | [9] -0.008 | gefitinib 0.05

TACO1 (UniProt Q9BSH4)
inactive: vemurafenib -0.004 | [1] -0.018 | barasertib 0.063 | [2] 0.055 | volasertib 0.068 | [3] 0.008 | [4] -0.143 | [5] 0.018 | saracatinib 0.019 | sotrastaurin -0.011 | alvocidib 0.009 | Tubastatin A -0.015 | [6] 0.028 | defactinib -0.009 | [7] 0.058 | encorafenib 0.031 | [8] -0.008 | alisertib 0.043 | [9] -0.062 | gefitinib -0.007

SUCLG2 (UniProt Q96I99)
inactive: vemurafenib 0.025 | [1] 0.012 | barasertib 0.052 | [2] -0.034 | volasertib -0.025 | [3] 0.025 | [4] -0.052 | [5] 0.018 | saracatinib -0.007 | sotrastaurin 0.027 | alvocidib 0.03 | Tubastatin A -0.001 | [6] -0.014 | defactinib 0.006 | [7] 0.004 | encorafenib -0.016 | [8] 0.101 | alisertib 0.002 | [9] 0 | gefitinib -0.002

Reprinted at random: two records from the list, in no set order.
STXBP4 (UniProt Q6ZWJ1)
inactive: vemurafenib 0.035 | [1] 0.027 | barasertib 0.023 | [2] 0.032 | volasertib -0.045 | [3] 0.047 | [4] 0.008 | [5] -0.057 | saracatinib -0.044 | sotrastaurin 0.002 | alvocidib 0.05 | Tubastatin A -0.079 | [6] 0.044 | defactinib 0.086 | [7] 0.021 | encorafenib 0.067 | [8] -0.019 | alisertib -0.011 | [9] 0.019 | gefitinib 0.013

TACO1 (UniProt Q9BSH4)
inactive: vemurafenib -0.004 | [1] -0.018 | barasertib 0.063 | [2] 0.055 | volasertib 0.068 | [3] 0.008 | [4] -0.143 | [5] 0.018 | saracatinib 0.019 | sotrastaurin -0.011 | alvocidib 0.009 | Tubastatin A -0.015 | [6] 0.028 | defactinib -0.009 | [7] 0.058 | encorafenib 0.031 | [8] -0.008 | alisertib 0.043 | [9] -0.062 | gefitinib -0.007

Further results follow:

TAB1 (UniProt Q15750)
inactive: vemurafenib -0.048 | [1] -0.004 | barasertib 0.049 | [2] -0.035 | volasertib -0.032 | [3] 0.024 | [4] -0.009 | [5] 0.005 | saracatinib 0.007 | sotrastaurin 0 | alvocidib 0 | Tubastatin A -0.005 | [6] 0.024 | defactinib -0.003 | [7] 0 | encorafenib -0.007 | [8] 0.053 | alisertib -0.069 | [9] -0.003 | gefitinib -0.007

STXBP1 (UniProt P61764)
inactive: vemurafenib 0.072 | [1] -0.003 | barasertib -0.014 | [2] -0.026 | volasertib -0.012 | [3] -0.005 | [4] -0.167 | [5] 0.016 | saracatinib 0.03 | sotrastaurin 0.017 | alvocidib -0.028 | Tubastatin A 0.007 | [6] 0.006 | defactinib 0.02 | [7] 0.018 | encorafenib -0.001 | [8] 0.044 | alisertib -0.006 | [9] -0.028 | gefitinib -0.011

SUGT1 (UniProt Q9Y2Z0)
inactive: vemurafenib -0.004 | [1] 0.01 | barasertib -0.035 | [2] 0.016 | volasertib 0.018 | [3] 0.021 | [4] 0.257 | [5] -0.042 | saracatinib -0.008 | sotrastaurin -0.024 | alvocidib 0.018 | Tubastatin A 0.026 | [6] -0.009 | defactinib -0.021 | [7] 0.026 | encorafenib -0.012 | [8] -0.05 | alisertib -0.03 | [9] -0.005 | gefitinib -0.018

SUCLA2 (UniProt Q9P2R7)
inactive: vemurafenib -0.003 | [1] 0.003 | barasertib 0.008 | [2] -0.041 | volasertib -0.04 | [3] 0.006 | [4] -0.174 | [5] 0.066 | saracatinib 0.006 | sotrastaurin 0.001 | alvocidib -0.033 | Tubastatin A -0.036 | [6] 0.008 | defactinib -0.028 | [7] -0.014 | encorafenib -0.026 | [8] 0.102 | alisertib 0.004 | [9] -0.018 | gefitinib 0.023

SYMPK (UniProt Q92797)
inactive: vemurafenib -0.024 | [1] 0.01 | barasertib 0.064 | [2] -0.038 | volasertib -0.034 | [3] 0.027 | [4] 0.003 | [5] -0.058 | saracatinib 0.001 | sotrastaurin -0.006 | alvocidib 0.006 | Tubastatin A -0.042 | [6] 0.019 | defactinib -0.004 | [7] 0.004 | encorafenib 0.014 | [8] 0.151 | alisertib -0.007 | [9] 0.004 | gefitinib -0.012

SURF1 (UniProt Q15526)
inactive: vemurafenib -0.01 | [1] 0.046 | barasertib -0.008 | [2] 0.014 | volasertib -0.031 | [3] 0.028 | [4] 0.037 | [5] -0.073 | saracatinib 0.017 | sotrastaurin 0.002 | alvocidib -0.024 | Tubastatin A -0.032 | [6] 0.036 | defactinib 0.038 | [7] -0.086 | encorafenib 0.047 | [8] 0.062 | alisertib -0.196 | [9] -0.077 | gefitinib 0.005

SYVN1 (UniProt Q86TM6)
inactive: vemurafenib 0.034 | [1] -0.006 | barasertib 0.05 | [2] 0.014 | volasertib 0.019 | [3] 0.018 | [4] 0.023 | [5] -0.034 | saracatinib 0.018 | sotrastaurin -0.017 | alvocidib -0.011 | Tubastatin A -0.012 | [6] 0.006 | defactinib -0.046 | [7] -0.002 | encorafenib 0.056 | [8] -0.084 | alisertib 0.023 | [9] -0.022 | gefitinib 0

STMN1 (UniProt P16949)
inactive: vemurafenib -0.004 | [1] -0.019 | barasertib 0.005 | [2] 0.049 | volasertib 0.051 | [3] -0.031 | [4] 0.011 | [5] -0.029 | saracatinib -0.016 | sotrastaurin 0.02 | alvocidib 0.024 | Tubastatin A 0.075 | [6] -0.013 | defactinib 0.039 | [7] 0.05 | encorafenib -0.021 | [8] -0.029 | alisertib -0.014 | [9] -0.003 | gefitinib -0.03

SUPV3L1 (UniProt Q8IYB8)
inactive: vemurafenib 0.016 | [1] 0.032 | barasertib -0.011 | [2] 0.019 | volasertib -0.002 | [3] 0 | [4] -0.006 | [5] -0.01 | saracatinib -0.002 | sotrastaurin 0.014 | alvocidib -0.031 | Tubastatin A 0.033 | [6] 0.015 | defactinib 0.035 | [7] 0.017 | encorafenib 0.01 | [8] -0.061 | alisertib 0.018 | [9] 0.009 | gefitinib 0.013

SUOX (UniProt P51687)
inactive: vemurafenib -0.06 | [1] 0.006 | barasertib 0.02 | [2] -0.098 | volasertib 0.003 | [3] 0.013 | [4] -0.014 | [5] 0.022 | saracatinib 0.024 | sotrastaurin 0.03 | alvocidib -0.038 | Tubastatin A 0.038 | [6] -0.06 | defactinib -0.037 | [7] -0.056 | encorafenib 0.075 | [8] 0.011 | alisertib -0.016 | [9] 0.042 | gefitinib 0.041

TACC1 (UniProt O75410)
inactive: vemurafenib -0.044 | [1] -0.003 | barasertib 0.044 | [2] 0.056 | volasertib 0.008 | [3] 0.032 | [4] 0.054 | [5] -0.082 | saracatinib 0.041 | sotrastaurin -0.042 | alvocidib 0.005 | Tubastatin A -0.027 | [6] 0.026 | defactinib 0.062 | [7] 0.067 | encorafenib 0.106 | [8] -0.114 | alisertib 0.028 | [9] 0.001 | gefitinib 0.056
